Reference: PubChem BioAssay AID1259424 (University of Nebraska Medical Center, 2018)
This is an unselected part of about 14,000 reagents tested. 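Higher correlation or smaller distance means closer resemblance to KSR1 loss; control wells, including KSR1 knockdowns, recur on many plates.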 Further read-outs or replicates are left out here. No sequences are given here. Not given: the time to read-out.

Assay: 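Seek colon cancer survival genes behaving like KSR1, using a six-gene signature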 (primary screen)
System: human HCT116 colon cancer cells
Reagent: siRNA pool against human genes, 50 nM
Read-out: 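Log2 levels of six mRNAs (branched-DNA multiplex), adjusted by two reference genes and the non-targeting median, then scored against the average KSR1 knockdown pattern as Pearson r and euclidean distance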
Direction: mean correlation with KSR1 profile and KSR1 correlation: higher = expression change more like KSR1 knockdown; mean distance from KSR1 profile: higher = expression change less like KSR1 knockdown

The opening 5 entries, ahead of the listing:
| mean correlation with KSR1 profile | mean distance from KSR1 profile | KSR1 correlation, replicate 1 | KSR1 correlation, replicate 2 | gene |
| --- | --- | --- | --- | --- |
| -0.487 | 3.13 | -0.665 | -0.669 | MPHOSPH6 |
| -0.106 | 3.37 | 0.0488 | -0.344 | LAPTM4B |
| 0.11 | 2.01 | 0.164 | 0.0452 | VRK2 |
| 0.637 | 1.61 | 0.599 | 0.702 | CXCR4 |
| -0.216 | 2.02 | -0.0645 | -0.2 | DUX4L1 |

Main list, from the first entry:
| mean correlation with KSR1 profile | mean distance from KSR1 profile | KSR1 correlation, replicate 1 | KSR1 correlation, replicate 2 | gene |
| --- | --- | --- | --- | --- |
| -0.487 | 3.13 | -0.665 | -0.669 | MPHOSPH6 |
| -0.106 | 3.37 | 0.0488 | -0.344 | LAPTM4B |
| 0.11 | 2.01 | 0.164 | 0.0452 | VRK2 |
| 0.637 | 1.61 | 0.599 | 0.702 | CXCR4 |
| -0.216 | 2.02 | -0.0645 | -0.2 | DUX4L1 |
| -0.418 | 3.97 | -0.499 | -0.43 | CNNM1 |
| 0.141 | 1.42 | 0.169 | 0.113 | DNAJA2 |
| -0.804 | 1.55 | -0.727 | -0.834 | TBC1D19 |
| 0.522 | 1.36 | 0.324 | 0.589 | CCDC77 |
| -0.088 | 1.53 | 0.282 | -0.114 | KLK13 |
| -0.287 | 2 | -0.281 | -0.0173 | PPWD1 |
| -0.642 | 1.87 | -0.637 | -0.8 | GPC5 |
| -0.222 | 1.42 | -0.515 | -0.362 | NCDN |
| -0.216 | 1.72 | -0.122 | -0.251 | WNT3 |
| 0.525 | 1.36 | 0.52 | 0.66 | ZNF696 |
| 0.102 | 4.56 | 0.0568 | -0.077 | CYTH4 |
| 0.452 | 1.62 | 0.536 | 0.278 | ATR |
| -0.0648 | 1.82 | -0.00481 | 0.0405 | ZRSR2P1 |
| 0.578 | 2.04 | 0.591 | 0.571 | RETNLB |
| -0.00565 | 1.53 | 0.0475 | 0.155 | MCF2 |
| -0.488 | 2.47 | -0.603 | -0.408 | FBXO3 |
| 0.181 | 1.28 | -0.247 | 0.374 | LACTB2 |
| -0.425 | 2.7 | -0.414 | -0.51 | HLA-DOB |
| -0.19 | 1.76 | -0.188 | -0.375 | ARMCX6 |
| -0.391 | 3.75 | -0.111 | -0.488 | WDR37 |
| 0.14 | 1.25 | -0.0937 | 0.144 | MAGI2 |
| 0.634 | 1.98 | 0.578 | 0.552 | ZNF20 |
| 0.741 | 1.13 | 0.707 | 0.585 | RFC4 |
| 0.785 | 1.11 | 0.716 | 0.773 | GNG3 |
| 0.162 | 1.89 | -0.104 | 0.144 | OTULINL |
| -0.467 | 1.23 | 0.0643 | -0.593 | PLCD1 |
| 0.675 | 1.05 | 0.568 | 0.615 | PCDHGB4 |
| 0.778 | 1.54 | 0.618 | 0.0482 | ZNF333 |
| -0.0463 | 1.58 | -0.253 | 0.0382 | RANBP2 |
| 0.321 | 3.08 | 0.268 | 0.294 | LPL |
| -0.509 | 1.79 | -0.575 | -0.669 | TPTE |
| 0.55 | 1.31 | 0.704 | 0.412 | FUT3 |
| -0.578 | 3.22 | -0.526 | -0.67 | AOAH |
| -0.118 | 1.92 | 0.0555 | -0.334 | KRT20 |
| 0.363 | 2.11 | 0.183 | 0.271 | DNAJB1 |
| 0.417 | 2.26 | 0.545 | 0.489 | MTNR1B |
| -0.0356 | 3.3 | 0.00367 | 0.0263 | ABCC3 |
| 0.0977 | 1.07 | -0.122 | -0.354 | FHL1 |
| 0.496 | 2.28 | 0.22 | 0.459 | FNTB |
| 0.451 | 5.06 | 0.46 | 0.357 | ADA2 |
| -0.142 | 5.39 | -0.159 | -0.113 | LZTR1 |
| 0.0907 | 1.85 | 0.179 | 0.274 | ARFIP2 |
| -0.062 | 2.14 | 0.0985 | -0.0126 | CLK1 |
| 0.648 | 1.49 | 0.495 | 0.526 | ITPRIP |
| -0.879 | 5.07 | -0.318 | -0.595 | TRNAU1AP |
| 0.642 | 1.39 | -0.0513 | 0.564 | KISS1 |
| -0.38 | 2.25 | -0.416 | -0.3 | CD82 |
| 0.631 | 2.14 | 0.817 | 0.706 | ZNF678 |
| -0.769 | 2.09 | -0.572 | -0.79 | LMNA |
| -0.283 | 1.49 | -0.224 | -0.302 | SLC9A3-OT1 |
| -0.487 | 1.83 | -0.531 | -0.585 | SLX1B |
| 0.103 | 1.13 | 0.102 | -0.0301 | ZNF609 |
| -0.635 | 1.46 | -0.45 | -0.472 | TATDN2 |
| 0.613 | 1.77 | 0.689 | 0.642 | PDK1 |
| 0.0995 | 1.9 | 0.334 | 0.188 | LDB1 |
| 0.704 | 1.98 | 0.603 | 0.723 | WDR54 |
| -0.572 | 2.56 | -0.624 | -0.522 | ITGB7 |
| -0.24 | 5.44 | -0.0883 | -0.364 | EIF2S2 |
